Some entries share one result that the patent states for a list of compounds.
Key:
[1] = tested on: human leukemia cell line (HL-60); assay: Differentiation with low concentration 1,25-(OH)2D3 or ATRA, NBT reduction method; type: cell-based; settings: 1 μM compound with low concentration of 1,25-(OH)2D3 and ATRA
Procedure: For measuring the differentiation inducing effect to acute bone merrow leukemia cell line (HL-60) by indirubin AGM compound, NBT (nitroblue tetrazolium) reduction reaction method is employed. The leukemia cell line is diluted into 2×10^5 cfu/ml. After treating 20 μM and 1 μM concentrations of test compounds, test plate is incubated for 3 days at 37° C. in 5% CO2 incubator. Incubated cells are washed with phosphate buffered saline (PBS). Then, they are further incubated in PBS solution containing 0.1% NBT and 200 ng/ml of PMA (phorbol 12-myristate 13-acetate) for 30 minutes at 37° C. Incubated cells are centrifuged and collected cells are washed with PBS solution. Using cell number counter, differentiated cells forming nitroblue formazan among total cells are counted.
Next, we test if AGM compound of present invention can synergically induce the differentiation of acute bone merrow leukemia cell line when it is treated with low concentration of 1,25-dihydroxyvitamin D3[1,25-(OH)2D3] or all-trans retinoic acid (ATRA) known as differentiation inducing agent. […] […] As a positive control, conventional differentiation inducing agent is used.

RK3E-ras solid tumor = assay: Tumor suppression in RK3E-ras tumor induced rats; type: in vivo; settings: Sprague Dawley rat; tumor volume by vernier caliper, V=1/2(a.b^2)
Procedure: RK3E cell is one of rat kidney cell and it is immortalized by EA1 oncogene. […] Inventors prepares stable RK3E-k-ras cell line by infection of retroviral expression vector to express mutant k-ras of oncogene. Prepared cell line is intramuscularly infected to Sprague Dawley rat to induce tumor. […] Tumor suppression effect by indirubin derivatives 011, 012 and 030 is measured through tumor induced rats.
1×10^7 of RK3E-ras cells is injected to Sprague Dawley rat to induce solid tumor for 5 days and experimental groups of animals are employed by size and volume of tumor in these animals. 100 mM of indirubin derivative is injected to experimental group of animals 5 times in every other day.
Tumor is measured by vernier caliper and the volume of tumor is calculated by Carlsso calculation method {V=1/2(a.b^2), a: long axis, b: short axis}.

| Compound | differentiation of cells induced by 1,25-(OH)2D3 and ATRA [1] | suppression against tumor (tumor volume) (RK3E-ras solid tumor) |
| --- | --- | --- |
| O=C1Nc2ccc(F)cc2C1=C1Nc2ccccc2C1=O [AGM010, 5′-fluoro-1H,1′H-[2,3′] biindolylidene-3,2′-dione] | more than 70% |  |
| O=C1Nc2ccc(F)cc2C1=C1Nc2ccccc2C1=NO [AGM012, 5′-fluoro-1H,1′H-[2,3′] biindolylidene-3,2′-dione 3-oxime] |  | 50˜60% |
